Data published in PMC12995475.
Results are given in words; binding and its absence hold for the method and conditions named. In cells and extracts the contact can be indirect. Where a sequence is shown, tags or fusion partners need not be part of it.

Biological target: T1, Biotin-histidine(His)-tagged R1 (UniProt P23921)
T1 sequence (chain, biotin): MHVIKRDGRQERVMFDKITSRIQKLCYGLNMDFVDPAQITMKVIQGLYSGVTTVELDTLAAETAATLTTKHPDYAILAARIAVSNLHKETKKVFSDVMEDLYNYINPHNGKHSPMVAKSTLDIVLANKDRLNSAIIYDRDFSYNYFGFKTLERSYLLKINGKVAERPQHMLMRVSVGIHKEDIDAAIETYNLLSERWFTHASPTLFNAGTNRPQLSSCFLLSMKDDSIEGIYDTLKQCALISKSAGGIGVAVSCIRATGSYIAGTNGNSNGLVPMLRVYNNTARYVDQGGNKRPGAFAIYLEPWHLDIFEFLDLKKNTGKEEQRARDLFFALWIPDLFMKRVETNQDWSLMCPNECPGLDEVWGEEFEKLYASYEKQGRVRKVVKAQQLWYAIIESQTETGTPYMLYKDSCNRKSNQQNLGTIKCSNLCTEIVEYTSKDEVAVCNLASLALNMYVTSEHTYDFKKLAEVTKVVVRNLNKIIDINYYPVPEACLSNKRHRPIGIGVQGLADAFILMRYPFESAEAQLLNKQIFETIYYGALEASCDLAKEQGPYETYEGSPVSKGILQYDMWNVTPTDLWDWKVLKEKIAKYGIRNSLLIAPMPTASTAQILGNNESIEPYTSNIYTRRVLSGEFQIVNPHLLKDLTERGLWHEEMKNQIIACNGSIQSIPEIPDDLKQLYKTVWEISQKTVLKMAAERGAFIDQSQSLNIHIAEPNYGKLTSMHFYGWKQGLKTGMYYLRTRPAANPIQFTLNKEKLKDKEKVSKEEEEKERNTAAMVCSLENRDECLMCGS
Test: pull-down; in vitro binding assay: purified biotin-His-tagged R1 bound to streptavidin beads, HA-tagged MCM from an in vitro transcription/translation reaction; only the target purified

B1: hemagglutinin(HA)-tagged MCM6 (protein, UniProt Q14566 1-821)
chain: MDLAAAAEPGAGSQHLEVRDEVAEKCQKLFLDFLEEFQSSDGEIKYLQLAEELIRPERNTLVVSFVDLEQFNQQLSTTIQEEFYRVYPYLCRALKTFVKDRKEIPLAKDFYVAFQDLPTRHKIRELTSSRIGLLTRISGQVVRTHPVHPELVSGTFLCLDCQTVIRDVEQQFKYTQPNICRNPVCANRRRFLLDTNKSRFVDFQKVRIQETQAELPRGSIPRSLEVILRAEAVESAQAGDKCDFTGTLIVVPDVSKLSTPGARAETNSRVSGVDGYETEGIRGLRALGVRDLSYRLVFLACCVAPTNPRFGGKELRDEEQTAESIKNQMTVKEWEKVFEMSQDKNLYHNLCTSLFPTIHGNDEVKRGVLLMLFGGVPKTTGEGTSLRGDINVCIVGDPSTAKSQFLKHVEEFSPRAVYTSGKASSAAGLTAAVVRDEESHEFVIEAGALMLADNGVCCIDEFDKMDVRDQVAIHEAMEQQTISITKAGVKATLNARTSILAAANPISGHYDRSKSLKQNINLSAPIMSRFDLFFILVDECNEVTDYAIARRIVDLHSRIEESIDRVYSLDDIRRYLLFARQFKPKISKESEDFIVEQYKHLRQRDGSGVTKSSWRITVRQLESMIRLSEAMARMHCCDEVQPKHVKEAFRLLNKSIIRVETPDVNLDQEEEIQMEVDEGAGGINGHADSPAPVNGINGYNEDINQESAPKASLRLGFSEYCRISNLIVLHLRKVEEEEDESALKRSELVNWYLKEIESEIDSEEELINKKRIIEKVIHRLTHYDHVLIELTQAGLKGSTEGSESYEEDPYLVVNPNYLLED
binding: no binding
